Source: patent US11230581B2, “Peptides and combination of peptides for use in immunotherapy against ovarian cancer and other cancers” (Immatics Biotechnologies GmbH, priority 2015, dated 2022)

Assays:
[1] = test system: additional tumor types; test: LC-MS detection and over-presentation of the peptides on additional tumor types, cell lines and primary cultures; set-up: species or system human; details: for Other relevant organs/ cancerous diseases: Table 4A: additional tumor types on which the peptide was found, over-presented on more than 5% of measured tumor samples, or presented on more than 5% with ratio of geometric means tumor vs normal tissues larger than 3; for Additional organs/cancerous diseases: additional tumor types with over-presentation on more than 5% of the measured tumor samples, or presentation on more than 5% with ratio of geometric means tumor vs normal tissues larger than 3
[2] = test system: ovarian cancer samples; test: Relative LC-MS quantitation of HLA-presented peptides: presentation and over-presentation on ovarian cancer vs a panel of normal tissues (presentation score); set-up: species or system human; key: +++: very highly over-presented on tumors compared to a panel of normal tissues; ++: highly over-presented on tumors compared to a panel of normal tissues; +: over-presented on tumors compared to a panel of normal tissues; details: over-presentation on tumors compared to a panel of normal tissues

Row | Substance | Other relevant organs/ cancerous diseases [1] | Additional organs/cancerous diseases [1] | Peptide Presentation (presentation score) [2]
1 | 514 (ILVDWLVQV; listed as Homo sapiens) [compound 514] | NSCLC, SCLC, RCC, Brain Cancer, GC, CRC, HCC, Melanoma, Esophageal Cancer, Urinary bladder Cancer, Uterine Cancer | BRCA, Gallbladder Cancer and Bile Duct Cancer, AML, NHL, HNSCC | +++
2 | 517 (LLMPIPEGLTL; listed as Homo sapiens) [compound 517] | NSCLC, SCLC, HCC, Melanoma | Urinary Bladder Cancer, Uterine Cancer, HNSCC | +
3 | 518 (KLNAEVACV; listed as Homo sapiens) [compound 518] | CRC, PrC, Esophageal Cancer | BRCA, Melanoma, Urinary Bladder Cancer, Uterine Cancer, HNSCC | +++
4 | 519 (GLLHLTLLL; listed as Homo sapiens) [compound 519] |  | SCLC, Gallbladder Cancer and Bile Duct Cancer, AML, HNSCC | +++
5 | 520 (LAVHPSGVAL; listed as Homo sapiens) [compound 520] | Leukemia | SCLC, CLL, BRCA, Gallbladder Cancer and Bile Duct Cancer | ++
6 | 521 (MLLTKLPTI; listed as Homo sapiens) [compound 521] | NSCLC, SCLC, CRC, HCC, BrCa, Melanoma, Urinary bladder Cancer | Brain Cancer, CLL, Uterine Cancer, AML, NHL, HNSCC | ++
7 | 522 (TLWYRSPEV; listed as Homo sapiens) [compound 522] | SCLC | Melanoma | +++
8 | 523 (YQIPRTFTL; listed as Homo sapiens) [compound 523] | SCLC, Brain Cancer, HCC, Leukemia, Melanoma | CLL, AML | +
9 | 525 (VLLEAGEGLVTI; listed as Homo sapiens) [compound 525] | Melanoma | NSCLC, SCLC, CLL, Urinary Bladder Cancer, Uterine Cancer, NHL, HNSCC | +
10 | 526 (RLAEVGQYEQV; listed as Homo sapiens) [compound 526] | NSCLC, HCC, MCC, Gallbladder Cancer, Bile Duct Cancer | Uterine Cancer, NHL | +
11 | 527 (FLLEPGNLEV; listed as Homo sapiens) [compound 527] | Urinary bladder Cancer |  | +++
12 | 528 (SVAEGRALMSV; listed as Homo sapiens) [compound 528] | Brain Cancer, CRC, HCC, Esophageal Cancer | NSCLC, CLL, BRCA, Urinary Bladder Cancer, Gallbladder Cancer and Bile Duct Cancer, HNSCC | +
13 | 529 (LLADELITV; listed as Homo sapiens) [compound 529] | Prostate, Leukemia, Urinary bladder Cancer | SCLC, CLL, HNSCC | ++
14 | 530 (VMYADIGGMDI; listed as Homo sapiens) [compound 530] | SCLC, Melanoma | CLL, Urinary Bladder Cancer, Uterine Cancer, Gallbladder Cancer and Bile Duct Cancer, HNSCC | +
15 | 531 (YTLPIASSIRL; listed as Homo sapiens) [compound 531] | SCLC, CRC, HCC | BRCA | +
16 | 538 (LLLAHIIAL; listed as Homo sapiens) [compound 538] | NSCLC, Brain Cancer, HCC | BRCA, Urinary Bladder Cancer, Uterine Cancer | ++
17 | 539 (ALFDAQAQV; listed as Homo sapiens) [compound 539] | NSCLC, SCLC, Brain Cancer, HCC, PC, PrC, BrCa, Esophageal Cancer, Urinary bladder Cancer, Uterine Cancer, Gallbladder Cancer, Bile Duct Cancer | Melanoma, AML | ++
18 | 540 (ALIPETTTLTV; listed as Homo sapiens) [compound 540] | HCC, PC, Melanoma | NHL | ++
19 | 541 (SMLEPVPEL; listed as Homo sapiens) [compound 541] | NSCLC, SCLC, Brain Cancer, CRC, HCC, Esophageal Cancer | Gallbladder Cancer and Bile Duct Cancer | +
20 | 543 (GLLPTPITQQASL; listed as Homo sapiens) [compound 543] | Esophageal Cancer | BRCA | +

Row | Substance | Other relevant organs/ cancerous diseases [1] | Additional organs/cancerous diseases [1] | Peptide Presentation (presentation score) [2]
21 | 545 (LLADLLHNV; listed as Homo sapiens) [compound 545] | NSCLC, SCLC, Colon, Rectum | BRCA | +
22 | 546 (VMIAGKVAVV; listed as Homo sapiens) [compound 546] | Colon, Rectum, HCC | SCLC, Urinary Bladder Cancer, HNSCC | +
23 | 550 (FLYDEIEAEVNL; listed as Homo sapiens) [compound 550] | Leukemia, Melanoma | CLL | +
24 | 554 (LLMPSSEDLLL; listed as Homo sapiens) [compound 554] | NSCLC, SCLC, CRC, HCC, PrC, BrCa, Esophageal Cancer, Urinary bladder Cancer, Gallbladder Cancer, Bile Duct Cancer | CLL, Melanoma, HNSCC | ++
25 | 557 (KLYDDMIRL; listed as Homo sapiens) [compound 557] |  | Brain Cancer, NHL | +
26 | 558 (GLLENIPRV; listed as Homo sapiens) [compound 558] | NSCLC, SCLC, RCC, Brain Cancer, HCC, Leukemia, Uterine Cancer, Gallbladder Cancer, Bile Duct Cancer | CLL, BRCA, Melanoma, AML, NHL | ++
27 | 560 (ALWDIETGQQTTT; listed as Homo sapiens) [compound 560] | SCLC, HCC, Melanoma, Esophageal Cancer | CLL, Urinary Bladder Cancer, Uterine Cancer, Gallbladder Cancer and Bile Duct Cancer, NHL, HNSCC | +
28 | 561 (YLQLTQSEL; listed as Homo sapiens) [compound 561] | SCLC, Leukemia, Esophageal Cancer, Gallbladder Cancer, Bile Duct Cancer | CLL, NHL, HNSCC | +++
29 | 563 (WLLPYNGVTV; listed as Homo sapiens) [compound 563] | SCLC, Melanoma | CLL, Uterine Cancer, NHL | +
30 | 564 (TVTNAVVTV; listed as Homo sapiens) [compound 564] | RCC, GC, HCC, Melanoma |  | ++
31 | 565 (ALQETPTSV; listed as Homo sapiens) [compound 565] | SCLC, Melanoma, Esophageal Cancer, Uterine Cancer | BRCA, Gallbladder Cancer and Bile Duct Cancer | ++
32 | 566 (VIADGGIQNV; listed as Homo sapiens) [compound 566] | Leukemia, Melanoma, Endometrium | CRC, CLL, BRCA, Urinary Bladder Cancer, Gallbladder Cancer and Bile Duct Cancer, NHL | ++
33 | 568 (TLYDIAHTPGV; listed as Homo sapiens) [compound 568] | NSCLC, SCLC, CRC, Melanoma, Esophageal Cancer | CLL, Urinary Bladder Cancer, NHL, HNSCC | ++
34 | 570 (ALANQIPTV; listed as Homo sapiens) [compound 570] |  | HCC | +
35 | 574 (YLLQEPPRTV; listed as Homo sapiens) [compound 574] | SCLC |  | +
36 | 575 (YLISQVEGHQV; listed as Homo sapiens) [compound 575] | CRC, HCC, MCC, Melanoma, Esophageal Cancer | NSCLC, SCLC, BRCA, Urinary Bladder Cancer, HNSCC | +
37 | 576 (ILLNNSGQIKL; listed as Homo sapiens) [compound 576] | NSCLC, CRC, HCC, Leukemia, BrCa, Melanoma, Esophageal Cancer |  | ++
38 | 579 (NLMEMVAQL; listed as Homo sapiens) [compound 579] | NSCLC, CRC, HCC, Leukemia | SCLC, CLL, Melanoma, Urinary Bladder Cancer, NHL | ++
39 | 586 (KLKPGDLVGV; listed as Homo sapiens) [compound 586] | Brain Cancer, HCC | Uterine Cancer | +
